Measured data: PubChem BioAssay AID1259308 (NCATS, 2017)
Shown is a random part of about 59,000 reagents. About 1,510 of all reagents (2.6%) count as active. 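Calls use total luciferase alone and ignore viability, so some active siRNAs may act by altering cell number.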 Entries without a mark were called inactive. The numbers tell different reagents against one gene apart. Not all columns of the deposit are shown.

- Aim: 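Knock-downs that increase output of a recombinant reporter protein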 (primary screen)
- System: human HEK293 embryonic kidney cells stably expressing firefly luciferase (HEK-CMV-Luc2-Hygro)
- Reagent: single siRNA against human genes, 0.8 pmol siRNA per well
- Duration: 72 h
- Detection: 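Luciferase light (ONE-Glo) measured on one replicate plate set and viability (CellTiter-Glo) on the other, scaled to a negative control siRNA, with robust z-scores and luciferase per cell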
- Direction: total luciferase, z-score and total luciferase, % of control: higher = more reporter protein produced
- Active means: 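Active when the median/MAD z-score for overall luciferase is greater than 3; a gene was taken forward for validation with new siRNAs if at least two of its three siRNAs passed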
- Meaning of the calls: active = raised luciferase; inactive = no rise

ANKRD13A #1 gave total luciferase, z-score -0.208; total luciferase, % of control 77.7. After knock-down of ANKRD13A #2, the record shows total luciferase, z-score 0.325; total luciferase, % of control 88.4. ANKRD13A #3 scored total luciferase, z-score 1.53; total luciferase, % of control 112. With knock-down of PLP1 #1, the record shows total luciferase, z-score -0.968; total luciferase, % of control 62.6. Knock-down of PLP1 #2 came out at: total luciferase, z-score -0.264; total luciferase, % of control 76.6. PLP1 #3 scored total luciferase, z-score 2.26; total luciferase, % of control 127.

Against VDAC2P5 #1 the deposit lists total luciferase, z-score -0.986; total luciferase, % of control 62.3. Against VDAC2P5 #2 the deposit lists total luciferase, z-score 0.562; total luciferase, % of control 93.1. Against VDAC2P5 #3, the values are total luciferase, z-score 0.223; total luciferase, % of control 86.3. Depletion of NHS #1 came out at: total luciferase, z-score 1.24; total luciferase, % of control 106. After knock-down of NHS #2, the record shows total luciferase, z-score 0.194; total luciferase, % of control 85.8. Against NHS #3 the deposit lists total luciferase, z-score -0.517; total luciferase, % of control 71.6.

For COX10 #1, the values are total luciferase, z-score 0.592; total luciferase, % of control 93.7. Against COX10 #2, the values are total luciferase, z-score -1.71; total luciferase, % of control 47.9. After knock-down of COX10 #3 the results were total luciferase, z-score -0.337; total luciferase, % of control 75.2. SPMAP1 #1 showed total luciferase, z-score 0.749; total luciferase, % of control 96.8. Knock-down of SPMAP1 #2 resulted in: total luciferase, z-score -0.594; total luciferase, % of control 70.1. With knock-down of SPMAP1 #3, the screen gave total luciferase, z-score 1.48; total luciferase, % of control 111.

For CNTNAP5 #1, the entry reads total luciferase, z-score 1.12; total luciferase, % of control 104. CNTNAP5 #2 scored total luciferase, z-score -0.522; total luciferase, % of control 71.5. Silencing of CNTNAP5 #3 came out at: total luciferase, z-score 1.62; total luciferase, % of control 114. Knock-down of PRKAG3 #1 resulted in: total luciferase, z-score 0.791; total luciferase, % of control 97.6. With knock-down of PRKAG3 #2, the record shows total luciferase, z-score -2.94; total luciferase, % of control 23.5. Knock-down of PRKAG3 #3 resulted in: total luciferase, z-score -1.28; total luciferase, % of control 56.3.

Not a retest: an excerpt of the list.
NHS #1 | total luciferase, z-score: 1.24; total luciferase, % of control: 106
NHS #2 | total luciferase, z-score: 0.194; total luciferase, % of control: 85.8
NHS #3 | total luciferase, z-score: -0.517; total luciferase, % of control: 71.6
COX10 #1 | total luciferase, z-score: 0.592; total luciferase, % of control: 93.7
COX10 #2 | total luciferase, z-score: -1.71; total luciferase, % of control: 47.9

The results go on:
EFNA3 #1 showed total luciferase, z-score -0.604; total luciferase, % of control 69.9. Depletion of EFNA3 #2 came out at: total luciferase, z-score -0.193; total luciferase, % of control 78. With knock-down of EFNA3 #3, the screen gave total luciferase, z-score 0.973; total luciferase, % of control 101. With knock-down of C18orf63 #1, the screen gave total luciferase, z-score 1.24; total luciferase, % of control 107. Silencing of C18orf63 #2 came out at: total luciferase, z-score 0.147; total luciferase, % of control 84.8. With knock-down of C18orf63 #3, the screen gave total luciferase, z-score -1.92; total luciferase, % of control 43.6.

After knock-down of ZFC3H1 #1, the record shows total luciferase, z-score 0.767; total luciferase, % of control 97.1. Depletion of ZFC3H1 #2 gave: total luciferase, z-score 0.906; total luciferase, % of control 99.9. Against ZFC3H1 #3, the values are total luciferase, z-score -0.481; total luciferase, % of control 72.3. For FOXP4 #1 the deposit lists total luciferase, z-score -0.933; total luciferase, % of control 63.3. Against FOXP4 #2, the values are total luciferase, z-score -1.61; total luciferase, % of control 49.9. Silencing of FOXP4 #3 resulted in: total luciferase, z-score 0.193; total luciferase, % of control 85.7.

RPL7P23 #1 gave total luciferase, z-score -2.46; total luciferase, % of control 32.9. Knock-down of RPL7P23 #2 resulted in: total luciferase, z-score -3.38; total luciferase, % of control 14.7. RPL7P23 #3 gave total luciferase, z-score -1.85; total luciferase, % of control 45.1. TRIM51G #1 gave total luciferase, z-score 0.443; total luciferase, % of control 90.7. For TRIM51G #2, the values are total luciferase, z-score 0.0528; total luciferase, % of control 82.9. TRIM51G #3 gave total luciferase, z-score -0.963; total luciferase, % of control 62.7.
